# Results reported in PubChem BioAssay AID504847 (National Center for Advancing Translational Sciences (NCATS), 2011).
# Sequences of proteins named here, by UniProt entry; tags and fusion partners are left off. A change or cut given only in a name is not applied to a line headed by its entry.
# UniProt P11473: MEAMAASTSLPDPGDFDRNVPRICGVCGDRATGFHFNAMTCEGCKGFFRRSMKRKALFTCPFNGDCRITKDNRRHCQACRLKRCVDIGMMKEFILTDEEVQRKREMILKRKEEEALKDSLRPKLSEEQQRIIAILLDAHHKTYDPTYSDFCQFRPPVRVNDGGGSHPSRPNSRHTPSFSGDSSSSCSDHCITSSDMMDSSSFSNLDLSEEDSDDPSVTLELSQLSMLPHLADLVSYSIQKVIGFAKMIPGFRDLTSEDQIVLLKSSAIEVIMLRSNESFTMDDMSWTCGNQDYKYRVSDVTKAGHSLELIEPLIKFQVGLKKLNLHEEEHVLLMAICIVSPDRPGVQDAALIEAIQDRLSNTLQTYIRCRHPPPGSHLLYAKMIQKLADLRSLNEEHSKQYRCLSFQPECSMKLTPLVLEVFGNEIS
# Where “and” joins values, the source holds several entries; their conditions need not be identical. Equal entries are not always repeated. About 3,700 (0.93%) of roughly 400,000 compounds were called active. The shares of active, inactive and inconclusive entries below differ from those in the screen. Calls come from the whole dose curve; as a rule, active = well fitted inhibition curve with a large enough effect; inconclusive = small, poorly fitted or top-dose-only effect, or another doubt; inactive = no such curve, though single readings can be large or run the other way. Where the call is inconclusive, the potency comes from a doubtful curve fit.
# Target: Vitamin D3 receptor (Homo sapiens) (UniProt P11473)
# Assay: Inhibitors of the vitamin D receptor (VDR): qHTS
# Settings: VDR-SRC2-3 peptide fluorescence polarization, 2 h; max response, negative = inhibition: active compounds read low
# In short: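 Fluorescence polarization assay measuring small-molecule disruption of VDR binding to the coregulator peptide SRC2-3. Compounds were pin-transferred (23 nl) into the reagent mix and incubated 2 h at room temperature before reading.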
# % is set by controls: 0 for no effect and ±100 for the full control effect; potency is the fitted concentration of half-maximal effect.
Compound,Potency,"max response, negative = inhibition"
Cc1cccc(C(=O)Oc2c(Br)cc(Br)cc2/C=N/NC(=O)c2ccncc2)c1,"inconclusive: 89.1 µM [inhibitor, single point]",–
CCOc1ccc(S(=O)(=O)Nc2cccc(C(=O)NCCCn3ccnc3)c2)cc1,–,inactive: -0.453%
CCOc1ccc(S(=O)(=O)N(CC(=O)N/N=C/c2ccc(-c3ccc([N+](=O)[O-])cc3)o2)c2ccccc2)cc1,–,inactive: -8.96%
Cc1ccc(Nc2nc3c(S(=O)(=O)c4ccccc4)nnn3c3ccc(Cl)cc23)c(C)c1,–,inactive: -9.92%
O=Nc1nc2ncccn2c1-c1ccccc1,"inconclusive: 89.1 µM [inhibitor, single point]",–
O=C(c1ccccc1NS(=O)(=O)c1ccc([N+](=O)[O-])cc1[N+](=O)[O-])N1O[C@@H]2C=C[C@H]1C2,active: 44.7 µM,–
CC1CCc2c(sc(NC(=O)COC(=O)C3CCCO3)c2C#N)C1 (stereo unspecified),–,inactive: -22.2%
COc1ccc(-n2nnnc2S(=O)(=O)Cc2ccc(C(=O)O)cc2)cc1,"inconclusive: 79.4 µM [inhibitor, partial curve, poor fit]",–
CN1c2ccccc2C(C)(C)C12C=Nc1c(ccc3ccccc13)O2 (stereo unspecified),–,inactive: -18.7%
CC(C)=NOc1nc(N(C)C)nc(N2CCOCC2)n1,"inconclusive: 70.8 µM [inhibitor, single point]",–
N#C/C(=C\c1ccccc1[N+](=O)[O-])C(=O)NCc1ccccc1,"inconclusive: 100 µM [inhibitor, single point]",–
Cc1csc(SCC(=O)c2ccc(S(=O)(=O)N3CCOCC3)cc2)n1,–,inactive: -10.6%
COc1ccc(CNC(=O)CCNS(=O)(=O)c2cc(Br)cnc2N)cc1,"inconclusive: 28.2 µM [inhibitor, partial curve, poor fit]",–
C=C(C)Cn1c(SCC(=O)Nc2cccc(C)c2)nc2sc3c(c2c1=O)CCCC3,–,inactive: -29.6%
NCCCC[C@H]1CN=C(N)N1CCc1cccc2ccccc12,–,inactive: -6.49%
COC(=O)c1nnn(-c2ccc(Cl)cc2)c1C(=O)OC,"inconclusive: 89.1 µM [inhibitor, single point]",–
Cc1ccc(CN2CCN(c3ncccn3)CC2)o1,"inconclusive: 3.16 µM [inhibitor, partial curve, poor fit]",–
O=C(Nc1ccccc1)N(O)c1ccc(Cl)cc1,active: 28.2 µM,–
CC(=O)N=c1sc2nc3ccccc3nc2n1N(C(C)=O)C(C)=O,"inconclusive: 44.7 µM [inhibitor, partial curve, poor fit]",–
Cc1ccc(C(=O)CSc2nnc(-c3ccncc3)n2C)cc1,–,inactive: -10.8%
Cc1nc2ccc(NC(=O)/C=C/C(=O)O)cc2nc1C,–,inactive: -21.2%
Cc1[nH]c2ccc(C(=O)NCCN3CCCCCC3)cc2c1C,–,inactive: 18.2%
c1ccc2oc(-c3csc(N4CCOCC4)n3)cc2c1,"inconclusive: 79.4 µM [inhibitor, single point]",–

# A stretch from the list above:
Compound,Potency,"max response, negative = inhibition"
COc1ccc(-n2nnnc2S(=O)(=O)Cc2ccc(C(=O)O)cc2)cc1,"inconclusive: 79.4 µM [inhibitor, partial curve, poor fit]",–
CN1c2ccccc2C(C)(C)C12C=Nc1c(ccc3ccccc13)O2 (stereo unspecified),–,inactive: -18.7%
CC(C)=NOc1nc(N(C)C)nc(N2CCOCC2)n1,"inconclusive: 70.8 µM [inhibitor, single point]",–
N#C/C(=C\c1ccccc1[N+](=O)[O-])C(=O)NCc1ccccc1,"inconclusive: 100 µM [inhibitor, single point]",–
Cc1csc(SCC(=O)c2ccc(S(=O)(=O)N3CCOCC3)cc2)n1,–,inactive: -10.6%
COc1ccc(CNC(=O)CCNS(=O)(=O)c2cc(Br)cnc2N)cc1,"inconclusive: 28.2 µM [inhibitor, partial curve, poor fit]",–
C=C(C)Cn1c(SCC(=O)Nc2cccc(C)c2)nc2sc3c(c2c1=O)CCCC3,–,inactive: -29.6%
NCCCC[C@H]1CN=C(N)N1CCc1cccc2ccccc12,–,inactive: -6.49%

# Going on with the list:

Compound,Potency,"max response, negative = inhibition"
CCOC(=O)CN1C(=O)C(=O)c2cccc(C)c21,–,inactive: -5.86%
NS(=O)(=O)c1ccc(CCNC(=O)c2cncc(Br)c2)cc1,"inconclusive: 5.62 µM [inhibitor, partial curve, poor fit]",–
CCC(=O)Nc1ccc(/C=C(\C(C)=O)C(=O)c2ccccc2)cc1,"inconclusive: 56.2 µM [inhibitor, partial curve, poor fit]",–
O=C(CSc1ccc2nnc(-c3ccc(Cl)cc3)n2n1)N1CCCc2ccccc21,–,inactive: 10.5%
COc1cccc2c1C(=O)c1c(O)c3c(c(O)c1C2=O)C[C@@](O)(C(C)=O)C[C@@H]3O[C@H]1C[C@H](N)[C@H](O)[C@H](C)O1,"inconclusive: 15.8 µM [inhibitor, partial curve, poor fit]",–
O=C(NCC(c1cccnc1)N1CCN(c2ccc(F)cc2)CC1)C1CCCCC1 (stereo unspecified),–,inactive: -1.61%
Cc1nc(-c2ccc(S(=O)(=O)NCc3ccc(OC(C)C)cc3)cc2)co1,–,inactive: 7.3%
CCn1c(=O)c2sccc2n2c(CCC(=O)Nc3ccc(OC)cc3OC)nnc12,–,inactive: -16.4%
CCOc1cccc(C(=O)N/N=C/c2coc3ccccc3c2=O)c1,"inconclusive: 44.7 µM [inhibitor, partial curve, poor fit]",–
CS(=O)(=O)c1ccccc1-c1nnc(NC(=O)Cc2ccccc2)o1,–,inactive: 11.5%
Cc1ccc(NC(=O)CSc2ccc3nnc(-c4cccnc4)n3n2)cc1,–,inactive: 2.44%
O=C(NCc1ccco1)c1nn2c(C(F)(F)F)cc(-c3cccs3)nc2c1Br,–,inactive: -5.17%
COc1cc(CNCc2ccccc2C(F)(F)F)cc(OC)c1,–,inactive: -3.37%
O=C(C1=C(O)C(=O)N(Cc2ccco2)C1c1cccc([N+](=O)[O-])c1)c1ccco1 (stereo unspecified),"inconclusive: 89.1 µM [inhibitor, single point]",–
Cc1ccc(Cl)c2c1=NC(=O)C=2c1[nH]c(=S)[nH]c1O,"inconclusive: 25.1 µM [inhibitor, single point]",–
CC(C)CN(C(=O)CCc1ccccc1Cl)c1c(N)n(Cc2ccccc2)c(=O)[nH]c1=O,"inconclusive: 89.1 µM [inhibitor, single point]",–
Cc1[nH]n(-c2ccccc2)c(=O)c1N=Nc1ccc(C(N)=O)cc1,–,inactive: -11.8%
CC1(C)CC(=O)C(C(c2ccco2)C2C(=O)CC(C)(C)CC2=O)C(=O)C1,"inconclusive: 79.4 µM [inhibitor, single point]",–
Cc1ccc(S(=O)(=O)NCC(c2ccc(N(C)C)cc2)N2CCc3ccccc32)cc1 (stereo unspecified),–,inactive: 14.5%
Cc1cc2nc(N(Cc3cccnc3)C(=O)c3ccc(Cl)s3)sc2cc1C,–,inactive: 3.87%
Cc1nc(SCc2ccc(O)c([N+](=O)[O-])c2)c([N+](=O)[O-])[nH]1,"inconclusive: 89.1 µM [inhibitor, partial curve, poor fit]",–
O=C1CC(c2ccc(O)cc2)Oc2cc(O)cc(O)c21 (stereo unspecified),–,inactive: 1.35%
COc1ccc(C(CC(=O)N2CCCC2)c2c(OC)cc(OC)c3c(-c4ccccc4)cc(=O)oc23)cc1 (stereo unspecified),–,inactive: -16.9% and inactive: -0.899%
